In article PMC11140001:
No constants are given. Whether binding was seen depends on the method and setting. In cells and extracts the contact can be indirect. Some entries that bind do so weakly or less than the wild type.

Chains of the proteins cited; added tags and fusions are not shown.
UniProt Q92830: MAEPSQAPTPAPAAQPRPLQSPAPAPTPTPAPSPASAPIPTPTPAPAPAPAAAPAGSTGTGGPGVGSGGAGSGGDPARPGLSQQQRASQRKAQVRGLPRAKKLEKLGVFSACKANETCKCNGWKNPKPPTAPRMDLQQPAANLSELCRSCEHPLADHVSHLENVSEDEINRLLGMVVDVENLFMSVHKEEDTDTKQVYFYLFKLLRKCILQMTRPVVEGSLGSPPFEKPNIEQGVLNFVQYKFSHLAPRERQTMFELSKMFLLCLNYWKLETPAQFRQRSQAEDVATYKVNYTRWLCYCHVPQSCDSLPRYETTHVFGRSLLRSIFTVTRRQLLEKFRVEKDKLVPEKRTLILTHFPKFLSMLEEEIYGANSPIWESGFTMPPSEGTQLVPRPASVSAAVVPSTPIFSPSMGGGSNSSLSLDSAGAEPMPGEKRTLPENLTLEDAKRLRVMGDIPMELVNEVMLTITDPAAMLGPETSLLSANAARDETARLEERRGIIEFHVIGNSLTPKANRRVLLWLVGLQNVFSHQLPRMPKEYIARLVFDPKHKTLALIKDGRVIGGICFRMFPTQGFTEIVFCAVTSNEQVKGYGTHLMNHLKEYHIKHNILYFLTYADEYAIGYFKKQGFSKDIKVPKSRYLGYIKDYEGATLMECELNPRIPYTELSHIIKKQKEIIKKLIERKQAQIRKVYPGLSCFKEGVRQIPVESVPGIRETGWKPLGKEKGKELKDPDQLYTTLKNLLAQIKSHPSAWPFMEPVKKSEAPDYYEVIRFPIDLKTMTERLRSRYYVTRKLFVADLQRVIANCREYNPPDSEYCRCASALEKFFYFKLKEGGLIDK

Biological target: T1, CBX4 (human (endogenous in A549)) (UniProt O00257)
T1 sequence: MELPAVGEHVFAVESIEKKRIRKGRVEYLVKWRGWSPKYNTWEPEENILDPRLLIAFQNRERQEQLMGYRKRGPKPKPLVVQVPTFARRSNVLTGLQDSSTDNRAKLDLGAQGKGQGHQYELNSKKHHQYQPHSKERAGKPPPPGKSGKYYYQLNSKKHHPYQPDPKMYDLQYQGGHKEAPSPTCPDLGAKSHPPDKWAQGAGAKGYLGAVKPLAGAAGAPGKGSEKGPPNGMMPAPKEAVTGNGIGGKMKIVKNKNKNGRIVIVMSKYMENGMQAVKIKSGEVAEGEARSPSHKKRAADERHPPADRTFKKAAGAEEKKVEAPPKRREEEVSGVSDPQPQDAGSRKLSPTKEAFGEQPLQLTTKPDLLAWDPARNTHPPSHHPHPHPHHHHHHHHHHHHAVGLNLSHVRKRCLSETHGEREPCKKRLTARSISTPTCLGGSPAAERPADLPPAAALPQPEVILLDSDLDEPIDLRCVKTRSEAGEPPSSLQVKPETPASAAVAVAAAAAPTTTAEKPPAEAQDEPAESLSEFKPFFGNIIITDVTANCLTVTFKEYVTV
Assay: co-IP; endogenous co-immunoprecipitation from A549 cell lysate with anti-CBX4 or anti-GCN5 (normal IgG as control), protein A/G magnetic beads, 4 °C; lysis buffer 50 mM Tris-HCl pH 7.4, 150 mM NaCl, 1 mM EDTA, 0.5% Triton X-100; Western blotting

binding: binds
Substance: GCN5 (from UniProt Q92830 1-837)
